Test results as given in the supplement of paper PMC6289059.
Several values for one entry are separate records, joined by “and”; a condition that tells them apart may be missing. Equal entries are not always repeated. The list shows a part of the results. Many values rest on one well or one pass, so single values are uncertain.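 Hepatocyte-like cells derived from human stem cells with CRISPR-disrupted DGUOK model liver mtDNA depletion syndrome. Each well's ATP signal was scored against other wells on the same plate, and drugs scoring 3 or above were primary hits.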

Tested on: DGUOK Δ14/Δ5 iPSC-derived hepatocyte-like cells (SV20)
Assay: ATP level (CellTiter-Glo luminescence) Z score relative to plate distribution, under 2-DG glycolysis block; higher = more cellular ATP (rescue of mitochondrial ATP production)
Conditions: 5 µM; treatment time: day 15 to day 20 of differentiation (5 days); 2-deoxy-D-glucose: 20 mM for 24 h before assay

SMILES | ATP level
Cc1cccc(Nc2ccncc2S(=O)(=O)NC(=O)NC(C)C)c1 | inactive: -4.94
O=C(O)CCCC[C@@H]1CCSS1 | inactive: 1.16
CC(=O)O[C@H]1C[C@@H](O)C(C)(C)[C@@H]2C[C@@H](OC(C)=O)[C@]3(C)[C@H](CC[C@@]4(C)[C@@H](c5ccoc5)OC(=O)[C@H]5O[C@@]534)[C@@]12C | inactive: -2.72
CC(C)CCC[C@@H](C)[C@H]1CC[C@H]2[C@@H]3CC[C@H]4CC(=O)CC[C@]4(C)[C@H]3CC[C@]12C | inactive: -0.711
C=C(C)[C@H]1COc2cc3oc(=O)ccc3cc2O1 | inactive: 2.07
NC(=O)N1c2ccccc2CC(=O)c2ccccc21 | inactive: -0.0651
O=C(C=Cc1ccc(O)cc1)c1ccccc1O | inactive: 0.68
COc1cc2oc3cc(OC)c(OC)c(CC=C(C)C)c3c(=O)c2c(O)c1CC=C(C)C | inactive: -0.876
CC(C)Cn1cnc2c(N)nc3ccccc3c21 | inactive: -2.04
CC(=O)OCC(=O)[C@@]1(O)[C@H](OC(C)=O)C[C@H]2[C@@H]3CCC4=CC(=O)C=C[C@]4(C)[C@@]3(F)[C@@H](O)C[C@@]21C | inactive: 1.51
O=C1OC(=O)[C@H]2[C@@H]1[C@@H]1CC[C@H]2O1 | inactive: 2.19
C[C@]12CCC3c4ccc(OS(=O)(=O)O)cc4CCC3C1CC[C@H]2O (stereo not given in full) | inactive: 1.68
CC(C)NC(=N)NC(=N)Nc1ccc(Cl)cc1 | inactive: 1.22
COc1ccc2c3c1O[C@H]1C[C@@H](O)C=C[C@@]31CCN(C)C2 | inactive: -0.581
CCCC(=O)O[C@]1(C(=O)CO)CC[C@H]2[C@@H]3CCC4=CC(=O)CC[C@]4(C)[C@H]3[C@@H](O)C[C@@]21C | inactive: 1.73
CC1(C)S[C@@H]2[C@H](NC(=O)COc3ccccc3)C(=O)N2[C@H]1C(=O)O | inactive: 0.575
Cc1nnc(SCC2=C(C(=O)O)N3C(=O)[C@@H](NC(=O)Cn4cnnn4)[C@H]3SC2)s1 | inactive: 2.28
O=c1[nH]c(=O)n([C@H]2C[C@H](O)[C@@H](CO)O2)cc1C(F)(F)F | inactive: 0.296
C[C@H]1O[C@@H](O[C@H]2[C@@H](O)C[C@H](O[C@H]3[C@@H](O)C[C@H](O[C@H]4CC[C@@]5(C)[C@H](CC[C@@H]6[C@@H]5CC[C@]5(C)[C@@H](C7=CC(=O)OC7)CC[C@]65O)C4)O[C@@H]3C)O[C@@H]2C)C[C@H](O)[C@@H]1O | inactive: -26.5
CC(=O)CC(c1ccc([N+](=O)[O-])cc1)c1c(O)c2ccccc2oc1=O (stereo not given) | inactive: 1.36
CCCCCCCCNC(C)C(O)c1ccc(SC(C)C)cc1 (stereo not given) | inactive: -14.1
C=C(C)[C@@H]1CC[C@]2(C)CC[C@]3(C)[C@H](CC[C@@H]4[C@@]5(C)CC[C@H](O)C(C)(C)[C@@H]5CC[C@]43C)[C@@H]12 | inactive: 0.251

SMILES | ATP level
S=c1[nH]cnc2nc[nH]c12 | inactive: -0.893
COc1cc2c(cc1OC)[C@@H]1C(=O)c3ccc4c(c3O[C@@H]1CO2)C=CC(C)(C)O4 | inactive: -11.2
CC(C)[C@@H]1CC[C@@H](C)CC1=O | inactive: 1.15
NCCCCN | inactive: 0.959
CC1=CC2C(CC1=O)C(C)=CCC2C(C)C (stereo not given) | inactive: 2.44
O=C(O)C[C@H](O)C[C@H](O)/C=C/c1c(C2CC2)nc2ccccc2c1-c1ccc(F)cc1 | inactive: 0.545
Cc1ccc(C)c(OCCCC(C)(C)C(=O)O)c1 | inactive: 1.23
COC(=O)c1c(C)c2c(c(C)c1O)OC(=O)c1c(C)c(Cl)c(O)c(Cl)c1O2 | inactive: 2.41
COc1cc2c(cc1OC)[C@@H]1Cc3ccc(OC)c(OC)c3CN1CC2 | inactive: -3.18
NC(=O)c1ccc[n+]([C@@H]2O[C@H](COP(=O)([O-])OP(=O)(O)OC[C@H]3O[C@@H](n4cnc5c(N)ncnc54)[C@H](O)[C@@H]3O)[C@@H](O)[C@H]2O)c1 | active: 3.03
NCC(=O)CCC(=O)O | inactive: 1.31
COc1ccc(CN(CCN(C)C)c2ncccn2)cc1 | inactive: -4.79
COc1c2ccoc2cc2oc(C)cc(=O)c12 | inactive: 0.565
CCCCCC(=O)Cc1cc(O)cc(O)c1C(=O)Oc1cc(CC(=O)CCCCC)c(C(=O)O)c(OC)c1 | inactive: 0.428
COc1ccc(-c2coc3cc(O)ccc3c2=O)c(O)c1O | inactive: 0.51
COCCOC(=O)C1=C(C)NC(C)=C(C(=O)OC(C)C)C1c1cccc([N+](=O)[O-])c1 (stereo not given) | inactive: -8.76
NCCS | inactive: 2.21
CN1C(C(=O)Nc2ccccn2)=C(O)c2ccccc2S1(=O)=O | inactive: -12.4
COc1c(C)c2c(c(O)c1C/C=C(\C)CCC(=O)OCCN1CCOCC1)C(=O)OC2 | inactive: -1.48
C[C@]12CCC(=O)C=C1C=C[C@@H]1[C@@H]2CC[C@@]2(C)[C@H]1CC[C@@]21CCC(=O)O1 | inactive: -1.68
CC1(C)[C@@H](O)CC[C@]2(C)[C@H]3C(=O)C=C4[C@@H]5C[C@@](C)(C(=O)O)CC[C@]5(C)CC[C@@]4(C)[C@]3(C)CC[C@@H]12 | inactive: -6
Cc1c(NC(C)C)c(=O)n(-c2ccccc2)n1C | inactive: 1.42

SMILES | ATP level
CC(C[N+](C)(C)C)OC(N)=O (stereo not given) | inactive: 0.0517
CN(C)[C@@H]1C(=O)C(C(=O)NCN2CCCC2)=C(O)[C@@]2(O)C(=O)C3=C(O)c4c(O)cccc4[C@@](C)(O)[C@H]3C[C@@H]12 | inactive: 1.25
CCCCCCCCCCOc1cc2c(O)c(C(=O)OCC)cnc2cc1OCC | inactive: 0.597
CN(C)CCN(Cc1ccc(Cl)cc1)c1ccccn1 | inactive: -0.831
COc1ccc([C@@H]2Sc3ccccc3N(CCN(C)C)C(=O)[C@@H]2OC(C)=O)cc1 | inactive: -17.8
Cc1cn([C@H]2C[C@H](N=[N+]=[N-])[C@@H](CO)O2)c(=O)[nH]c1=O | inactive: -0.141
CN(C)CCCC1(c2ccc(F)cc2)OCc2cc(C#N)ccc21 (stereo not given) | inactive: -0.388
Cc1onc(-c2ccccc2)c1C(=O)N[C@@H]1C(=O)N2[C@@H]1SC(C)(C)[C@@H]2C(=O)O | inactive: 2.35
COc1cc2c(cc1OC)C(=O)OC2 | inactive: 1.38
OCC(O)CN1CCN(c2ccccc2)CC1 (stereo not given) | inactive: 0.944
COc1cc(N)c(Cl)cc1C(=O)NC1CCN(CCCOc2ccc(F)cc2)CC1OC (stereo not given) | inactive: -3.01
COc1c2c(cc3occ(-c4ccc5c(c4)OCO5)c(=O)c13)OC(C)(C)C=C2 | inactive: 0.217
CC[C@H](/C=C/[C@@H](C)[C@H]1CC[C@H]2[C@@H]3CCC4=CC(=O)CC[C@]4(C)[C@H]3CC[C@]12C)C(C)C | inactive: -1.29
COC1=CC(=O)C[C@@H](C)[C@]12Oc1c(Cl)c(OC)cc(OC)c1C2=O | inactive: 0.152
CCC(=O)NCC[C@@H]1CCc2ccc3c(c21)CCO3 | inactive: 2.28
CNC(=O)c1c(I)c(NC(C)=O)c(I)c(C(=O)O)c1I | inactive: -1.09
COc1ccc(-c2coc3cc(O)cc(O)c3c2=O)cc1 | inactive: 2.24
COc1ccc(CC(=O)c2ccc(O)cc2O)cc1 | inactive: 0.847
COc1ccc(-c2cc(=O)c3c(O)cc(OC)c(OC)c3o2)c(OC)c1 | inactive: -3.55
COC(=O)Nc1nc2cc(C(=O)c3ccc(F)cc3)ccc2[nH]1 | inactive: -2.19
Nc1nc(=O)c2c([nH]1)NCC(CNc1ccc(C(=O)N[C@@H](CCC(=O)O)C(=O)O)cc1)=N2 | inactive: 2.3
CCOC(=O)c1ccc(O)cc1 | inactive: 0.928

3 compounds from above, ordered by count of non-hydrogen atoms, smallest number first:
SMILES | ATP level
CCOC(=O)c1ccc(O)cc1 | inactive: 0.928
COc1ccc([C@@H]2Sc3ccccc3N(CCN(C)C)C(=O)[C@@H]2OC(C)=O)cc1 | inactive: -17.8
CN(C)[C@@H]1C(=O)C(C(=O)NCN2CCCC2)=C(O)[C@@]2(O)C(=O)C3=C(O)c4c(O)cccc4[C@@](C)(O)[C@H]3C[C@@H]12 | inactive: 1.25

The list goes on.

SMILES | ATP level
O=C(O)c1ccccc1Nc1cccc(OCc2ccc3ccccc3n2)c1 | inactive: -3.12
CC(O)CC(C)(C)O (stereo not given) | inactive: -16.7
COc1ccc2cc1Oc1ccc(cc1)C[C@H]1c3c(cc4c(c3Oc3cc5c(cc3OC)CCN(C)[C@@H]5C2)OCO4)CCN1C | inactive: -1.64
Cn1c(=O)c2[nH]c(Br)nc2n(C)c1=O | inactive: -13
COC1=C(OC)C(=O)C(C/C=C(\C)CC/C=C(\C)CC/C=C(\C)CC/C=C(\C)CC/C=C(\C)CC/C=C(\C)CC/C=C(\C)CC/C=C(\C)CC/C=C(\C)CCC=C(C)C)=C(C)C1=O | inactive: 1.31
Cc1c(OCC(F)(F)F)ccnc1C[S+]([O-])c1nc2ccccc2[nH]1 (stereo not given) | inactive: -6.12
O=C(/C=C/c1ccccc1)c1ccc(O)cc1O | inactive: 1.79
Cn1c(=O)c2c(ncn2C)n(C)c1=O | inactive: 1.06
S=P(N1CC1)(N1CC1)N1CC1 | inactive: -24.5
CC(C)[C@@H]1CC[C@@H](C)C[C@H]1OC(=O)c1ccccc1 | inactive: 1.87
Cc1cc(O)cc(=O)o1 | inactive: 0.841
COC(=O)/C(=C1/OC(=O)C(c2ccccc2)=C1O)c1ccccc1 | inactive: 0.74
CC(C)[C@H]1CC[C@H](C(=O)N[C@H](Cc2ccccc2)C(=O)O)CC1 | active: 4.57
COc1c(O)cc2c(c1O)[C@@H]1O[C@H](CO)[C@@H](O)[C@H](O)[C@H]1OC2=O | inactive: 1.06
CC(=O)Oc1cccc(C(=O)O)c1OC(C)=O | inactive: -0.676
COc1ccc(C(C)=O)c(O)c1 | inactive: -1.36
CC(C)c1nc(CN(C)C(=O)N[C@H](C(=O)N[C@@H](Cc2ccccc2)C[C@H](O)[C@H](Cc2ccccc2)NC(=O)OCc2cncs2)C(C)C)cs1 | inactive: 1.73
COc1ccccc1OCCNCC(O)COc1cccc2[nH]c3ccccc3c12 (stereo not given) | inactive: -3.9 and inactive: -9.09
COc1cc2c(cc1OC)-c1c(oc3cc(O)cc(O)c3c1=O)CO2 | inactive: 0.808
